Test results from the supplement of paper PMC10849652.
Some of the results follow.

Protein sequences, listed by entry. Tags and fused reporters are not part of them. Lines headed by an entry give the natural chain unless they say otherwise; changes in a name come on top.
UniProt O15397, whole entry, looked up: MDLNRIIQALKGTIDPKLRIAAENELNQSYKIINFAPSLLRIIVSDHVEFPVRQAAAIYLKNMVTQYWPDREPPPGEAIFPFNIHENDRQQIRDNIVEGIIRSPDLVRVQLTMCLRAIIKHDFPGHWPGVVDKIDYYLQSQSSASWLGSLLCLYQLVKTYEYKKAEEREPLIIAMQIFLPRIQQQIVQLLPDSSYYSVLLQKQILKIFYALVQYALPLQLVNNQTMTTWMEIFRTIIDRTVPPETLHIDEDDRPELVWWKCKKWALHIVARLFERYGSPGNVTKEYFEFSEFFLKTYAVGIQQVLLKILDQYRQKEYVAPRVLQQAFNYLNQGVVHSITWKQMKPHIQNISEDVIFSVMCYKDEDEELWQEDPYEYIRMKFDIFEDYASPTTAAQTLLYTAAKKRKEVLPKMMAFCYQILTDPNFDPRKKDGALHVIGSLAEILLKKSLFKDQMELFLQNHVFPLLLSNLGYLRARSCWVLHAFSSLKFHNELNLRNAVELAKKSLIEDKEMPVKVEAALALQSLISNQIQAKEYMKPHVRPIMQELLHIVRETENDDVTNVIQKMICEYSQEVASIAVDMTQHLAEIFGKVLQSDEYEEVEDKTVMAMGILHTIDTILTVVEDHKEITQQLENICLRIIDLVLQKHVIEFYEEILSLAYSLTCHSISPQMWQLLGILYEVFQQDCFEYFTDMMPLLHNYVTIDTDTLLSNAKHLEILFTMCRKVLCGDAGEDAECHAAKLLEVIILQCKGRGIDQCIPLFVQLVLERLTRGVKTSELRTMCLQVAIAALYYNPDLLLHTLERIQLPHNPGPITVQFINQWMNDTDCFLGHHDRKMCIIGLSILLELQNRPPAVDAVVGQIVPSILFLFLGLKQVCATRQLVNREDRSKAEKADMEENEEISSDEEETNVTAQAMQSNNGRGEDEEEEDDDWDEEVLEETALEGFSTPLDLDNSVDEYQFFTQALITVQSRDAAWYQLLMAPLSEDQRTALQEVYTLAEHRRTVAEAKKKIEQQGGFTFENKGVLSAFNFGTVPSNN
UniProt O95279: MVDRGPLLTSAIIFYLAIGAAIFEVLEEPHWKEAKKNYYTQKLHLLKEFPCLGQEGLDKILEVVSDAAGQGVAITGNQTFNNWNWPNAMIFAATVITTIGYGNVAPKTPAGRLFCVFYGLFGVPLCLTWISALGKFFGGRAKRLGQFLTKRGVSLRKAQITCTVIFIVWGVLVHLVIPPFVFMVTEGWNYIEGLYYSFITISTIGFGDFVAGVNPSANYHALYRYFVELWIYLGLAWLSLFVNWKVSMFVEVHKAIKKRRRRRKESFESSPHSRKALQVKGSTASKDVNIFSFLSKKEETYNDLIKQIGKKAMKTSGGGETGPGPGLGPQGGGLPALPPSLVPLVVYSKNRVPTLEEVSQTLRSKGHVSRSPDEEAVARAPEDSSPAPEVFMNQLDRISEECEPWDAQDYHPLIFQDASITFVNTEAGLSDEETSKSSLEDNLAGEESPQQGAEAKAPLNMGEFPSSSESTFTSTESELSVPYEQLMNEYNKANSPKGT
UniProt P17535: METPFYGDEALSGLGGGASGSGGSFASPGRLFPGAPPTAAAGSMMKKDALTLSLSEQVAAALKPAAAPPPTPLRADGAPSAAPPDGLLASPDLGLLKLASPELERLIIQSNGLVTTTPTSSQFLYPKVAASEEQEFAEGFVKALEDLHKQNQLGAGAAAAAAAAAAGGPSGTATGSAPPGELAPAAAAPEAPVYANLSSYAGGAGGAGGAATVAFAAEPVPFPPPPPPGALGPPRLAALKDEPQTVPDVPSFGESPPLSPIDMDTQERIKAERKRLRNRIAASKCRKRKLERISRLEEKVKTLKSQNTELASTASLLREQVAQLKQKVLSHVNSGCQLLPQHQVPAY
UniProt Q9UK76: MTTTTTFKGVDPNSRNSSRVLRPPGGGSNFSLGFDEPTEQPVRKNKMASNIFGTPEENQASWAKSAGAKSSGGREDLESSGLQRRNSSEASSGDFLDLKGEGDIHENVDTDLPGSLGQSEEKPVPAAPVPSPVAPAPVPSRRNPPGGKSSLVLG
UniProt O15554, whole entry, looked up: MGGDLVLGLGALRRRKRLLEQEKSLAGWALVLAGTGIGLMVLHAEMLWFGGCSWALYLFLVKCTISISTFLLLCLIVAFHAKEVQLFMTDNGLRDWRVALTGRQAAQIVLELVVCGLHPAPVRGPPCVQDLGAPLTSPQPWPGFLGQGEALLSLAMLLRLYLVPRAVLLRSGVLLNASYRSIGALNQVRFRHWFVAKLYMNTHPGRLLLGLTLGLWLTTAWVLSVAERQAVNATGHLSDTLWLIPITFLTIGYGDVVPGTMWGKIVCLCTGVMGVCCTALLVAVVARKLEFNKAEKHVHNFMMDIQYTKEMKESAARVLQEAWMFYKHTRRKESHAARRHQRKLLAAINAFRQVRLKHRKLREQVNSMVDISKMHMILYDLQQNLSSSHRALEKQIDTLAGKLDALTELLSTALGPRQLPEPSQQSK
UniProt Q8NA54: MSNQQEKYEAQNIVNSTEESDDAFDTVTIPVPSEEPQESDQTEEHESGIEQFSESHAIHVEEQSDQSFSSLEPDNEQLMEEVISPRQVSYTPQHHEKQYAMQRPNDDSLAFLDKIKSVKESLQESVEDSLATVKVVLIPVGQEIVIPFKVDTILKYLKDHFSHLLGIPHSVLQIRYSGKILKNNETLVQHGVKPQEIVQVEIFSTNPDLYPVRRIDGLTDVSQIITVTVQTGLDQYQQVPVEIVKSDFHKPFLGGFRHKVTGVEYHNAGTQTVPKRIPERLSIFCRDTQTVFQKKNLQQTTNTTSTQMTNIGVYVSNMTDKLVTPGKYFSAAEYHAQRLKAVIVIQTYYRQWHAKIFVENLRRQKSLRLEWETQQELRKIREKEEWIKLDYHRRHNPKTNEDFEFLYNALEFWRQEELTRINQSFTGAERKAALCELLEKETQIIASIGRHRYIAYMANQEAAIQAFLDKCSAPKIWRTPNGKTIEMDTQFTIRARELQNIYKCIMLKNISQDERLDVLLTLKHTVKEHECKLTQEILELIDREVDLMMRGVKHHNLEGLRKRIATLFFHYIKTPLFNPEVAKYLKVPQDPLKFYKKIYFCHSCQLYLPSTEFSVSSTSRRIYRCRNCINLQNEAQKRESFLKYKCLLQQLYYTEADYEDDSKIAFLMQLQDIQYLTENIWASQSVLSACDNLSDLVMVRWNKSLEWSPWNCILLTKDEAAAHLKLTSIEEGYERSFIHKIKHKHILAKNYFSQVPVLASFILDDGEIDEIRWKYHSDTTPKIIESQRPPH
UniProt Q9H079: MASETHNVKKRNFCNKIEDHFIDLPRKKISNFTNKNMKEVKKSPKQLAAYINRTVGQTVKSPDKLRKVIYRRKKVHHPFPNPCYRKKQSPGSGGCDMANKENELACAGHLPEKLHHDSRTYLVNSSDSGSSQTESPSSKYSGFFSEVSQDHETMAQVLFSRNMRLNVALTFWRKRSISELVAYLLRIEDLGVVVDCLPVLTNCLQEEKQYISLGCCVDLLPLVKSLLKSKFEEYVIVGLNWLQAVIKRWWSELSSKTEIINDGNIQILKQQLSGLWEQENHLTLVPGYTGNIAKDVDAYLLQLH
UniProt O14713: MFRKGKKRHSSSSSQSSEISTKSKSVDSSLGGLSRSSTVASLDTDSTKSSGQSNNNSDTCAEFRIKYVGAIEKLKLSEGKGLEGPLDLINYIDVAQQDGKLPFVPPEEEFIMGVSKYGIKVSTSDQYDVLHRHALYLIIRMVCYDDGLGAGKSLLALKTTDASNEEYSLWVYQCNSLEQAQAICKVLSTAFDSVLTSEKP
UniProt Q9H3F6: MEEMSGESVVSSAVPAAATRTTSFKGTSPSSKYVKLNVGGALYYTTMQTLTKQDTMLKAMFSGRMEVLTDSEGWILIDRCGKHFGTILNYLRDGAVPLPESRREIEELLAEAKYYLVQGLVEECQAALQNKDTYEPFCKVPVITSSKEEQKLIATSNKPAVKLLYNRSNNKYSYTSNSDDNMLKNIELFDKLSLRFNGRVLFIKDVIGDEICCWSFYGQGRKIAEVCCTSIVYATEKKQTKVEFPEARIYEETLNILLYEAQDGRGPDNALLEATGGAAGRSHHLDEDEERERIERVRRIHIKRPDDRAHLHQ
UniProt O43736: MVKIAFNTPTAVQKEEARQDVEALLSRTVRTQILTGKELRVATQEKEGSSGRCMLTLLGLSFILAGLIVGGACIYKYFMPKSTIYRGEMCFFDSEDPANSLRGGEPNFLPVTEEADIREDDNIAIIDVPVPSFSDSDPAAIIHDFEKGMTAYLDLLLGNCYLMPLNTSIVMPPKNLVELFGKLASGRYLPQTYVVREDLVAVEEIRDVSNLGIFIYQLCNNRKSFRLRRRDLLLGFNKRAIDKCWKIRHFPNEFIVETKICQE
UniProt Q9Y4H2: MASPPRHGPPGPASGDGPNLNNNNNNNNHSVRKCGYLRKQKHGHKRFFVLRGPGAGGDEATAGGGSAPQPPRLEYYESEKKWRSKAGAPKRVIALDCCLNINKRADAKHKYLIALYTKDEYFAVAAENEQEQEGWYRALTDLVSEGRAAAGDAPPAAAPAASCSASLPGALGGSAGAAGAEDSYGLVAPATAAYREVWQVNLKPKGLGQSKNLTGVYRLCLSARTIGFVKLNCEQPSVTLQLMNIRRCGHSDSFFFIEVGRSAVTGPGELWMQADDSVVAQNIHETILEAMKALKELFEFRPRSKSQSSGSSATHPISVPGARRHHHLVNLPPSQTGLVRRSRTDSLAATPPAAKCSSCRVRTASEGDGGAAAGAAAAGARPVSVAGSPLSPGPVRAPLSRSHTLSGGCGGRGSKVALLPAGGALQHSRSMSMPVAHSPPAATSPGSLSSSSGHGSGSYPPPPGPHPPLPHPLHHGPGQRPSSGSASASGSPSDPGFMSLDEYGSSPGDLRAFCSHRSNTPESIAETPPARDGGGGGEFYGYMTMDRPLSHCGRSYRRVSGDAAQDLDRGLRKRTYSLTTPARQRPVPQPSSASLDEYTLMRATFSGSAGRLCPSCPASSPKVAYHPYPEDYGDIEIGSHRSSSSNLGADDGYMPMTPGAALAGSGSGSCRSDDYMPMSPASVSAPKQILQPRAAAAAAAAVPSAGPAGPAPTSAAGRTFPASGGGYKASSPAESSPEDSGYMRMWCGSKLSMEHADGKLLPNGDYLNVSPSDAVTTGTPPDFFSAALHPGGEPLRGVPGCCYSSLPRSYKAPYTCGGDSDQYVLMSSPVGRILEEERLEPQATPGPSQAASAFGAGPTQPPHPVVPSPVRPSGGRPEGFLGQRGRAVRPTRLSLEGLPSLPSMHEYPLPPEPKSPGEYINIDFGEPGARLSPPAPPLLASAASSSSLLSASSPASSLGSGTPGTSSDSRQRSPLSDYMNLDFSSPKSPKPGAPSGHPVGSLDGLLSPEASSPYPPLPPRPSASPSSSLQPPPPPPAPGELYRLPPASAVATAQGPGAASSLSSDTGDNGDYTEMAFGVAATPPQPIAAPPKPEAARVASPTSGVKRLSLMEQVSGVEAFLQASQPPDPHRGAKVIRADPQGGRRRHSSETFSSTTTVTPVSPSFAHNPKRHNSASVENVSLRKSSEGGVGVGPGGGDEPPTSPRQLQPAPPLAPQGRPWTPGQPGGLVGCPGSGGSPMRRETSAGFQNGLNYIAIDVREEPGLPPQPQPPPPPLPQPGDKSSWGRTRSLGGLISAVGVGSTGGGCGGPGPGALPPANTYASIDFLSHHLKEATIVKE
UniProt Q14681: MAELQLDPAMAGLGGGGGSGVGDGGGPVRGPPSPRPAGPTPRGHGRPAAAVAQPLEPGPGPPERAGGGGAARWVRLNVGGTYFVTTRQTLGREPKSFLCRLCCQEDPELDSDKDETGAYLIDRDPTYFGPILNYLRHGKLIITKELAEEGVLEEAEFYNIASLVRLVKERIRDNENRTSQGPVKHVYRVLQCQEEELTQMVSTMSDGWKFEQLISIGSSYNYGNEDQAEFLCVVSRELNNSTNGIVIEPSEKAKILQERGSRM
UniProt Q96MP8: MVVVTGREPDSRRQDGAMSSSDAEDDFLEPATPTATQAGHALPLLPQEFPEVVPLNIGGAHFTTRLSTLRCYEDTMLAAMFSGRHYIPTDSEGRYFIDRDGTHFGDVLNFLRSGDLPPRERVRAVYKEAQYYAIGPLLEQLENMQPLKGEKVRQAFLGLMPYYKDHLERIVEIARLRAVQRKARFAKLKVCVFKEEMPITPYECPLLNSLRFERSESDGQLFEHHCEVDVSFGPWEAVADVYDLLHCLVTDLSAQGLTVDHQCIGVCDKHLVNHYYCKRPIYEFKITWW
UniProt P53990, whole entry, looked up: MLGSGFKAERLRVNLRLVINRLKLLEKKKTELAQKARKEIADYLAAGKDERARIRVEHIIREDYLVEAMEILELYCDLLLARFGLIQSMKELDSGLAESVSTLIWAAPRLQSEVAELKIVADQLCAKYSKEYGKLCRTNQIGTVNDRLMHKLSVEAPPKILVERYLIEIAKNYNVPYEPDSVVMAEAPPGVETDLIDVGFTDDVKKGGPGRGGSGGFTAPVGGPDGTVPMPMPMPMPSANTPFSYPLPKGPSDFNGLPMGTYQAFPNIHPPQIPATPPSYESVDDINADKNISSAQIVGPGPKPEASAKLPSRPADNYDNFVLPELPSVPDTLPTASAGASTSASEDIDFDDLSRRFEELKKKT

Compound: C[C@H](C1=CC=C(C=C1)C(=O)NC2=C3C=CNC3=NC=C2)N
Experiment: log2 fold change, soluble protein after heating vs DMSO (PISA); higher = thermal stabilisation; K562 lysate, 10 uM; active = over 0.2 and 3.5 SD of the protein, either way, in both replicates (recomputed)
Outline: (§1)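 Quantification was by TMTpro 16plex LC-MS/MS with equalised channel sums, applied to the supernatant after 21,000xg for 90 min. Samples were crude K562 extract at 1 mg/mL protein in PBS pH 7.4 with 1 mM MgCl2, treated with 10 μM compound for 30 min, heated for 3 min across 48°C-58°C, pooled and brought to 0.5% NP-40 at 4°C. Values are log-two fold changes in thermal stability relative to solvent controls, from duplicates.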

| Target | log2 fold change |
| --- | --- |
| KDM1A (UniProt O60341) | inactive: -0.055 |
| IPO8 (UniProt O15397) | inactive: -0.006 |
| ITGB1 (UniProt P05556) | inactive: -0.032 |
| KCNK5 (UniProt O95279) | inactive: -0.214 |
| JUND (UniProt P17535) | inactive: -0.179 |
| ITIH2 (UniProt P19823) | inactive: -0.004 |
| JPT1 (UniProt Q9UK76) | inactive: 0.014 |
| KCNN4 (UniProt O15554) | inactive: 0.167 |
| IQUB (UniProt Q8NA54) | inactive: 0.008 |
| KATNBL1 (UniProt Q9H079) | inactive: 0.05 |
| KAT2A (UniProt Q92830) | inactive: 0.055 |
| ISCA2 (UniProt Q86U28) | inactive: 0.009 |
| ITGB1BP1 (UniProt O14713) | inactive: 0.023 |
| IQGAP3 (UniProt Q86VI3) | inactive: -0.023 |
| ITGA2B (UniProt P08514) | inactive: 0.076 |
| IQGAP1 (UniProt P46940) | inactive: 0.005 |
| JAK3 (UniProt P52333) | inactive: 0.418 |
| KCTD10 (UniProt Q9H3F6) | inactive: 0.139 |
| ITPR1 (UniProt Q14643) | inactive: -0.069 |
| KAZN (UniProt Q674X7) | inactive: -0.018 |
| ITM2A (UniProt O43736) | inactive: 0.097 |
| KDELR3 (UniProt O43731) | inactive: -0.119 |
| IRS2 (UniProt Q9Y4H2) | active: -0.578 |
| KCTD2 (UniProt Q14681) | inactive: 0.426 |
| KCNK1 (UniProt O00180) | inactive: 0.021 |
| ITCH (UniProt Q96J02) | inactive: -0.055 |
| ITGAE (UniProt P38570) | inactive: -0.382 |
| ITPRID2 (UniProt P28290) | inactive: 0.119 |
| JMJD7 (UniProt P0C870) | inactive: -0.186 |
| ISCA1 isoform 2 (UniProt Q9BUE6) | active: 0.343 |

Compound: C[C@H](Nc1ncnc2nc[nH]c12)c1cc2cccc(Cl)c2c(=O)n1-c1ccccc1 [duvelisib]
Experiment: as above
Outline: as §1

| Target | log2 fold change |
| --- | --- |
| KDM1A (UniProt O60341) | inactive: -0.025 |
| IPO8 (UniProt O15397) | inactive: 0.015 |
| ITGB1 (UniProt P05556) | inactive: -0.009 |
| KCNK5 (UniProt O95279) | inactive: -0.55 |
| JUND (UniProt P17535) | inactive: -0.065 |
| ITM2C (UniProt Q9NQX7) | inactive: -0.017 |
| JUN (UniProt P05412) | inactive: 0.172 |
| JPT1 (UniProt Q9UK76) | inactive: 0.06 |
| KATNBL1 (UniProt Q9H079) | inactive: 0.164 |
| KAT2A (UniProt Q92830) | inactive: 0.073 |
| KBTBD7 (UniProt Q8WVZ9) | inactive: -0.025 |
| KCTD7 (UniProt Q96MP8) | inactive: 0.053 |
| ISCA2 (UniProt Q86U28) | inactive: 0.022 |
| ITGB1BP1 (UniProt O14713) | inactive: 0.089 |
| IQGAP3 (UniProt Q86VI3) | inactive: -0.028 |
| JTB (UniProt O76095) | inactive: -0.057 |
| IQGAP1 (UniProt P46940) | inactive: -0.002 |
| IST1 isoform 2 (UniProt P53990) | inactive: -0.11 |
| KCTD10 (UniProt Q9H3F6) | inactive: 0.116 |
| KAZN (UniProt Q674X7) | inactive: 0.065 |
| ITM2A (UniProt O43736) | inactive: 0.003 |
| KDELR3 (UniProt O43731) | inactive: -0.038 |
| IRS2 (UniProt Q9Y4H2) | inactive: 0 |
| KCTD2 (UniProt Q14681) | inactive: -0.069 |
| KCNK1 (UniProt O00180) | inactive: 0.053 |
| ITCH (UniProt Q96J02) | inactive: 0.005 |
| JMJD7 (UniProt P0C870) | inactive: -0.23 |
| ISCA1 isoform 2 (UniProt Q9BUE6) | inactive: 0.012 |
